Reference: patent publication US20210069189A1, “TREATMENT OF NEURODEGENERATIVE DISEASES” (BENEVOLENTAI BIO LIMITED, priority 2017, published 2021)
At least one structure is not confirmed: it was looked up by name or label, or the drawing left a doubt.

Test system: murine Hb9-GFP+ motor neurons co-cultured with ALS patient-derived iAstrocytes
Assay: ALS patient iAstrocyte / mouse Hb9-GFP+ motor neuron co-culture, motor neuron survival
Assay type: cell-based, human iAstrocytes
Settings: iAstrocytes pre-treated 24 hours with various concentrations; viable motor neurons at 72 h as percentage of 24 h, normalised to DMSO control; FIG. 2
Procedure: ALS iAstrocytes were pre-treated with various concentrations of nilotinib, bafetinib or bosutinib for 24 hours, prior to murine Hb9-GFP motor neuron seeding in co-culture. The number of viable motor neurons was then measured 24 and 72 hours after motor neuron seeding, and the percentage motor neuron survival was calculated, and then normalised to the untreated control of the respective line. *P<0.05, **P<0.01, ***P<0.001. One-way ANOVA with Dunnett's post-hoc test. Data are mean±SD. n=5-6.
This example describes the effect of nilotinib, bafetinib and bosutinib on motor neuron survival in an in vitro model of ALS. This model uses human fibroblast-derived astrocytes and mouse Hb9−GFP+ motor neurons in co-culture (Meyer et al., 2014, PNAS 111, 829-832). The fibroblasts were reprogrammed to induced neural progenitor cells (iNPCs), which were differentiated into Astrocytes. […]
3,000 human iAstrocytes were seeded per well on fibronectin-coated 384-well plates. […] Hb9− GFP+ motor neurons were imaged after 24 and 72 hours using an INCELL analyser 2000 (GE Healthcare), and the number of viable motor neurons was counted using the INCELL analyser software (GE Healthcare).
The number of viable motor neurons (defined as GFP+ motor neurons with at least 1 axon) 25 that survived after 72 hours in co-culture was calculated as a percentage of the number of viable motor neurons after 24 hours in co-culture. […]

In the case of `COc1cc(Nc2c(C#N)cnc3cc(OCCCN4CCN(C)CC4)c(OC)cc23)c(Cl)cc1Cl` [bosutinib], the motor neuron survival is reported as “dose-dependent increase in motor neuron survival”.
For `Cc1ccc(NC(=O)c2ccc(CN3CC[C@H](N(C)C)C3)c(C(F)(F)F)c2)cc1Nc1nccc(-c2cncnc2)n1` [bafetinib], the motor neuron survival was “dose-dependent increase in motor neuron survival”.
